The list shows a part of the results.
Assays:
Assay in all cases: glycan array binding signal (z-score within array); higher = stronger binding
Settings in all cases: glycan notation: IUPAC condensed, linker removed
[1] = target: GlcNAc(b1-4)GlcNAc(b1-4)GlcNAc(b1-4)GlcNAc(b1-4)GlcNAc(b1-4)GlcNAc
In short: (§1)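 The binding signal is a Z-score computed within each array and averaged over linkers. Arrays of the same protein sequence at different concentrations or buffers were also averaged together. Data originate from 3228 arrays in the Consortium for Functional Glycomics database, kept only where the protein sequence was available.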

[2] = target: GlcNAc(b1-4)[GlcNAc(b1-6)]GalNAc
In short: as §1

[3] = target: GlcNAc(b1-6)Gal(b1-4)GlcNAc
In short: as §1

GlcNAc(b1-6)GalNAc = target: GlcNAc(b1-6)GalNAc
In short: as §1

[4] = target: GlcNAc6S(b1-3)Gal(b1-4)GlcNAc
In short: as §1

Kdn(a2-3)Gal(b1-3)GalNAc = target: Kdn(a2-3)Gal(b1-3)GalNAc
In short: as §1

Kdn(a2-3)Gal(b1-3)GlcNAc = target: Kdn(a2-3)Gal(b1-3)GlcNAc
In short: as §1

Kdn(a2-3)Gal(b1-4)Glc = target: Kdn(a2-3)Gal(b1-4)Glc
In short: as §1

Kdn(a2-3)Gal(b1-4)GlcNAc = target: Kdn(a2-3)Gal(b1-4)GlcNAc
In short: as §1

[5] = target: Kdn(a2-3)Gal(b1-4)[Fuc(a1-3)]GlcNAc
In short: as §1

Kdn(a2-6)Gal(b1-4)GlcNAc = target: Kdn(a2-6)Gal(b1-4)GlcNAc
In short: as §1

[6] = target: Man(a1-2)Man(a1-2)Man(a1-3)Man
In short: as §1

[7] = target: Man(a1-2)Man(a1-2)Man(a1-6)[Man(a1-3)]Man
In short: as §1

Man(a1-2)Man(a1-3)Man = target: Man(a1-2)Man(a1-3)Man
In short: as §1

[8] = target: Man(a1-2)Man(a1-3)[Man(a1-2)Man(a1-6)]Man
In short: as §1

[9] = target: Man(a1-2)Man(a1-3)[Man(a1-2)Man(a1-6)]Man(a1-6)[Man(a1-2)Man(a1-2)Man(a1-3)]Man
In short: as §1

[10] = target: Man(a1-2)Man(a1-3)[Man(a1-2)Man(a1-6)]Man(a1-6)[Man(a1-2)Man(a1-2)Man(a1-3)]Man(b1-4)GlcNAc(b1-4)GlcNAc
In short: as §1

[11] = target: Man(a1-2)Man(a1-3)[Man(a1-6)]Man(a1-6)[Man(a1-2)Man(a1-3)]Man(b1-4)GlcNAc(b1-4)GlcNAc
In short: as §1

[12] = target: Man(a1-2)Man(a1-6)[Man(a1-3)]Man(a1-6)[Man(a1-2)Man(a1-2)Man(a1-3)]Man
In short: as §1

[13] = target: Man(a1-2)Man(a1-6)[Man(a1-3)]Man(a1-6)[Man(a1-2)Man(a1-2)Man(a1-3)]Man(b1-4)GlcNAc(b1-4)GlcNAc
In short: as §1

Man(a1-3)[Man(a1-6)]Man = target: Man(a1-3)[Man(a1-6)]Man
In short: as §1

[14] = target: Man(a1-3)[Man(a1-6)]Man(a1-6)[Man(a1-2)Man(a1-3)]Man(b1-4)GlcNAc(b1-4)GlcNAc
In short: as §1

[15] = target: Man(a1-3)[Man(a1-6)]Man(a1-6)[Man(a1-3)]Man
In short: as §1

[16] = target: Man(a1-3)[Man(a1-6)]Man(a1-6)[Man(a1-3)]Man(b1-4)GlcNAc(b1-4)GlcNAc
In short: as §1

[17] = target: Man(a1-3)[Man(a1-6)]Man(b1-4)GlcNAc(b1-4)GlcNAc
In short: as §1

[18] = target: Man(a1-3)[Man(a1-6)]Man(b1-4)GlcNAc(b1-4)[Fuc(a1-6)]GlcNAc
In short: as §1

Man(a1-6)Man = target: Man(a1-6)Man
In short: as §1

Man(b1-4)GlcNAc = target: Man(b1-4)GlcNAc
In short: as §1

MurNAc(b1-4)GlcNAc = target: MurNAc(b1-4)GlcNAc
In short: as §1

Neu5Ac(a2-3)Gal = target: Neu5Ac(a2-3)Gal
In short: as §1

[19] = target: Neu5Ac(a2-3)Gal(b1-3)GalNAc
In short: as §1

[20] = target: Neu5Ac(a2-3)Gal(b1-3)GalNAc(b1-3)Gal(a1-4)Gal(b1-4)Glc
In short: as §1

[21] = target: Neu5Ac(a2-3)Gal(b1-3)GalNAc(b1-4)[Neu5Ac(a2-3)]Gal(b1-4)Glc
In short: as §1

[22] = target: Neu5Ac(a2-3)Gal(b1-3)GalNAc(b1-4)[Neu5Ac(a2-8)Neu5Ac(a2-3)]Gal(b1-4)Glc
In short: as §1

[23] = target: Neu5Ac(a2-3)Gal(b1-3)GalNAc6S
In short: as §1

[24] = target: Neu5Ac(a2-3)Gal(b1-3)GlcNAc
In short: as §1

[25] = target: Neu5Ac(a2-3)Gal(b1-3)GlcNAc(b1-2)Man
In short: as §1

[26] = target: Neu5Ac(a2-3)Gal(b1-3)GlcNAc(b1-2)Man(a1-3)[GlcNAc(b1-4)][Neu5Ac(a2-3)Gal(b1-3)GlcNAc(b1-2)Man(a1-6)]Man(b1-4)GlcNAc(b1-4)GlcNAc
In short: as §1

[27] = target: Neu5Ac(a2-3)Gal(b1-3)GlcNAc(b1-2)Man(a1-3)[Neu5Ac(a2-3)Gal(b1-3)GlcNAc(b1-2)Man(a1-6)]Man(b1-4)GlcNAc(b1-4)GlcNAc
In short: as §1

[28] = target: Neu5Ac(a2-3)Gal(b1-3)GlcNAc(b1-3)Gal(b1-3)GlcNAc
In short: as §1

[29] = target: Neu5Ac(a2-3)Gal(b1-3)GlcNAc(b1-3)Gal(b1-4)GlcNAc
In short: as §1

[30] = target: Neu5Ac(a2-3)Gal(b1-3)GlcNAc(b1-3)GalNAc
In short: as §1

[31] = target: Neu5Ac(a2-3)Gal(b1-3)GlcNAc(b1-4)Gal(b1-4)Glc
In short: as §1

[32] = target: Neu5Ac(a2-3)Gal(b1-3)GlcNAc(b1-6)GalNAc
In short: as §1

[33] = target: Neu5Ac(a2-3)Gal(b1-3)GlcNAc6S
In short: as §1

B1: Clone646PsrP (Streptococcus pneumoniae) (protein)
chain: MDHHHHHHHHASENLYFQGAPAINASLNIAKSETKVYTGEGVDSVYRVPIYYKLKVTNDGSKLTFTYTVTYVNPKTNDLGNISSMRPGYSIYNSGTSTQTMLTLGSDLGKPSGVKNYITDKNGRQVLSYNTSTMTTQGSGYTWGNGAQMNGFFAKKGYGLTSSWTVPITGTDTSFTFTPYAARTDRIGINYFNGGGKVVESSTTSQSLSQSKSLSVSAS
B1 was tested, and the “glycan array binding signal (z-score)” value [1] was 0.043, the “glycan array binding signal (z-score)” value [2] was -0.205 and the “glycan array binding signal (z-score)” value [3] was 1.04. For the same binder, the “glycan array binding signal (z-score)” value (GlcNAc(b1-6)GalNAc) was 0.842, the “glycan array binding signal (z-score)” value [4] was 0.294 and the “glycan array binding signal (z-score)” value (Kdn(a2-3)Gal(b1-3)GalNAc) was 1.7. For the same binder, the “glycan array binding signal (z-score)” value (Kdn(a2-3)Gal(b1-3)GlcNAc) was -0.826, the “glycan array binding signal (z-score)” value (Kdn(a2-3)Gal(b1-4)Glc) was 0.154 and the “glycan array binding signal (z-score)” value (Kdn(a2-3)Gal(b1-4)GlcNAc) was 0.815. The “glycan array binding signal (z-score)” value [5] was 0.135, the “glycan array binding signal (z-score)” value (Kdn(a2-6)Gal(b1-4)GlcNAc) was 0.94 and the “glycan array binding signal (z-score)” value [6] was -0.403. For the same binder, the “glycan array binding signal (z-score)” value [7] was 0.669, the “glycan array binding signal (z-score)” value (Man(a1-2)Man(a1-3)Man) was 0.973 and the “glycan array binding signal (z-score)” value [8] was -1.02. For the same binder, the “glycan array binding signal (z-score)” value [9] was -0.947, the “glycan array binding signal (z-score)” value [10] was 0.328 and the “glycan array binding signal (z-score)” value [11] was -0.756. The “glycan array binding signal (z-score)” value [12] was -0.217, the “glycan array binding signal (z-score)” value [13] was 1.6 and the “glycan array binding signal (z-score)” value (Man(a1-3)[Man(a1-6)]Man) was 0.991. The “glycan array binding signal (z-score)” value [14] was 1.06, the “glycan array binding signal (z-score)” value [15] was 3.32 and the “glycan array binding signal (z-score)” value [16] was 0.509. For the same binder, the “glycan array binding signal (z-score)” value [17] was -0.444, the “glycan array binding signal (z-score)” value [18] was -1.07 and the “glycan array binding signal (z-score)” value (Man(a1-6)Man) was 4.74. For the same binder, the “glycan array binding signal (z-score)” value (Man(b1-4)GlcNAc) was 0.837, the “glycan array binding signal (z-score)” value (MurNAc(b1-4)GlcNAc) was 0.037 and the “glycan array binding signal (z-score)” value (Neu5Ac(a2-3)Gal) was -0.198. For the same binder, the “glycan array binding signal (z-score)” value [19] was -0.895, the “glycan array binding signal (z-score)” value [20] was 0.373 and the “glycan array binding signal (z-score)” value [21] was -0.543. For the same binder, the “glycan array binding signal (z-score)” value [22] was -0.476, the “glycan array binding signal (z-score)” value [23] was 0.541 and the “glycan array binding signal (z-score)” value [24] was -0.345. The “glycan array binding signal (z-score)” value [25] was 2.02, the “glycan array binding signal (z-score)” value [26] was -0.952 and the “glycan array binding signal (z-score)” value [27] was 1.21. The “glycan array binding signal (z-score)” value [28] was -0.996, the “glycan array binding signal (z-score)” value [29] was -0.976 and the “glycan array binding signal (z-score)” value [30] was -0.325. The “glycan array binding signal (z-score)” value [31] was 0.297, the “glycan array binding signal (z-score)” value [32] was -0.742 and the “glycan array binding signal (z-score)” value [33] was -0.267.
